Experiment [1] concerns the target T1, TurboID-GOLIM4 fusion protein (human) (UniProt O00461).
T1 sequence: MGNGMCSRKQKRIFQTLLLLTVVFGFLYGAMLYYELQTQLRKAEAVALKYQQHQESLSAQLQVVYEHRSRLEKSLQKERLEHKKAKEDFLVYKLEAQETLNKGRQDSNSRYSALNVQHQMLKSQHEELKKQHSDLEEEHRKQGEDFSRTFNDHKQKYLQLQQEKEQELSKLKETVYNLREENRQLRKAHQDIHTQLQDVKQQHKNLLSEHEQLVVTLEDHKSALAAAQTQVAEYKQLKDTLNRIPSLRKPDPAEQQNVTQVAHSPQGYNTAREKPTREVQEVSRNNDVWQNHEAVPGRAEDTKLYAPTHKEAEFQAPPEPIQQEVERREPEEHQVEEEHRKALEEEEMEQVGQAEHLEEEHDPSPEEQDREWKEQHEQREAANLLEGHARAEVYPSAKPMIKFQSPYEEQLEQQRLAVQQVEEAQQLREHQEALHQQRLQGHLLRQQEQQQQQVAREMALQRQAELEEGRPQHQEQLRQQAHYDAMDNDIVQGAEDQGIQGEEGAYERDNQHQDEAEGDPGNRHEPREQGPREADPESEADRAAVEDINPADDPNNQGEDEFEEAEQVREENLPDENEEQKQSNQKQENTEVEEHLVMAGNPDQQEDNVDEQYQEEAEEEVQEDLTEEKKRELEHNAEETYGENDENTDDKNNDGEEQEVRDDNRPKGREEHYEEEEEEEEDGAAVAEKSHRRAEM
In words: proximity labelling; TurboID-GOLIM4 as bait in H1299 cells; 100 μM biotin for 1 hour; biotinylated proteins purified on streptavidin agarose beads and identified by LC-MS (the paper calls it a proximity ligation assay).

By UniProt entry, the sequences of proteins in these tests, tags left out.
UniProt P98194: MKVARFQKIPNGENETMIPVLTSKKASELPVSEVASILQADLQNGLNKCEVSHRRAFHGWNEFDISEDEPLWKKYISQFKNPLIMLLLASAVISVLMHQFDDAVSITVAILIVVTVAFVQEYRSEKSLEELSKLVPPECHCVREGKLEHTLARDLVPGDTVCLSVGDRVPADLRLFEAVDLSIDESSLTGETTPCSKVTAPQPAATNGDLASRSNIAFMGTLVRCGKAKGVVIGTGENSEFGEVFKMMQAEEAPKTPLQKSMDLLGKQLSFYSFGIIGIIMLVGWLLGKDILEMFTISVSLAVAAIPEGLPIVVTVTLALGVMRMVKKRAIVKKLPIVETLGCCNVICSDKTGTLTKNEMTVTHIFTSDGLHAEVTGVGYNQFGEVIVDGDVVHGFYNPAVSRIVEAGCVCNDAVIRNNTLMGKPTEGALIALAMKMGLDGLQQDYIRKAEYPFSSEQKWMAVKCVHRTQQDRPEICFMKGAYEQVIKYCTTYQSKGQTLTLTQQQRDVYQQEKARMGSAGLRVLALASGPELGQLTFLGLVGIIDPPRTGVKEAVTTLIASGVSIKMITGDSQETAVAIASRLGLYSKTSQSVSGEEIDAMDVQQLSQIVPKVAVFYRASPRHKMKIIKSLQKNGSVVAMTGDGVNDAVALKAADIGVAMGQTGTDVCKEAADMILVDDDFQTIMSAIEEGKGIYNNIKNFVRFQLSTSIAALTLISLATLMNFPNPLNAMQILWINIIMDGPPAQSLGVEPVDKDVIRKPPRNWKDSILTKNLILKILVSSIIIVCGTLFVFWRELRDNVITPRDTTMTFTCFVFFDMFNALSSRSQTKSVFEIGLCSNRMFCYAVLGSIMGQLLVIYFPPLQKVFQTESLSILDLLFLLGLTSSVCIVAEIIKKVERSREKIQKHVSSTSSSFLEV

The target of experiment [2] is T1, TurboID-GOLIM4 fusion protein (human). In words: proximity labelling; TurboID-GOLIM4 as bait in Mn-treated cells; biotinylated proteins identified by LC-MS.

These are yes or no findings as the source states them, for the method shown. Binding seen in cells or lysates may run through a third protein. These calls come from enrichment with a bait or labelling near it, and not all partners need be listed. Tags and fused reporters may be left off the sequences shown.

Consider “ATPase secretory pathway Ca2+ transporting 1 (ATP2C1) (from UniProt P98194 1-919)”, for which the binding result in experiment [1] is given as “binds”.

B1: GGA1 (protein, UniProt Q9UJY5 1-639)
chain: MEPAMEPETLEARINRATNPLNKELDWASINGFCEQLNEDFEGPPLATRLLAHKIQSPQEWEAIQALTVLETCMKSCGKRFHDEVGKFRFLNELIKVVSPKYLGSRTSEKVKNKILELLYSWTVGLPEEVKIAEAYQMLKKQGIVKSDPKLPDDTTFPLPPPRPKNVIFEDEEKSKMLARLLKSSHPEDLRAANKLIKEMVQEDQKRMEKISKRVNAIEEVNNNVKLLTEMVMSHSQGGAAAGSSEDLMKELYQRCERMRPTLFRLASDTEDNDEALAEILQANDNLTQVINLYKQLVRGEEVNGDATAGSIPGSTSALLDLSGLDLPPAGTTYPAMPTRPGEQASPEQPSASVSLLDDELMSLGLSDPTPPSGPSLDGTGWNSFQSSDATEPPAPALAQAPSMESRPPAQTSLPASSGLDDLDLLGKTLLQQSLPPESQQVRWEKQQPTPRLTLRDLQNKSSSCSSPSSSATSLLHTVSPEPPRPPQQPVPTELSLASITVPLESIKPSNILPVTVYDQHGFRILFHFARDPLPGRSDVLVVVVSMLSTAPQPIRNIVFQSAVPKVMKVKLQPPSGTELPAFNPIVHPSAITQVLLLANPQKEKVRLRYKLTFTMGDQTYNEMGDVDQFPPPETWGSL
With B1, the binding entry in experiment [2] is given as “binds”.

(Values after paper PMC11178546.)
